Measurements: the supplement of paper PMC10849652
Some of the results follow.

Amino acid sequences for entries named in this document (tags omitted). A change or cut given only in a name is not applied to a line headed by its entry.
UniProt Q9NVR5: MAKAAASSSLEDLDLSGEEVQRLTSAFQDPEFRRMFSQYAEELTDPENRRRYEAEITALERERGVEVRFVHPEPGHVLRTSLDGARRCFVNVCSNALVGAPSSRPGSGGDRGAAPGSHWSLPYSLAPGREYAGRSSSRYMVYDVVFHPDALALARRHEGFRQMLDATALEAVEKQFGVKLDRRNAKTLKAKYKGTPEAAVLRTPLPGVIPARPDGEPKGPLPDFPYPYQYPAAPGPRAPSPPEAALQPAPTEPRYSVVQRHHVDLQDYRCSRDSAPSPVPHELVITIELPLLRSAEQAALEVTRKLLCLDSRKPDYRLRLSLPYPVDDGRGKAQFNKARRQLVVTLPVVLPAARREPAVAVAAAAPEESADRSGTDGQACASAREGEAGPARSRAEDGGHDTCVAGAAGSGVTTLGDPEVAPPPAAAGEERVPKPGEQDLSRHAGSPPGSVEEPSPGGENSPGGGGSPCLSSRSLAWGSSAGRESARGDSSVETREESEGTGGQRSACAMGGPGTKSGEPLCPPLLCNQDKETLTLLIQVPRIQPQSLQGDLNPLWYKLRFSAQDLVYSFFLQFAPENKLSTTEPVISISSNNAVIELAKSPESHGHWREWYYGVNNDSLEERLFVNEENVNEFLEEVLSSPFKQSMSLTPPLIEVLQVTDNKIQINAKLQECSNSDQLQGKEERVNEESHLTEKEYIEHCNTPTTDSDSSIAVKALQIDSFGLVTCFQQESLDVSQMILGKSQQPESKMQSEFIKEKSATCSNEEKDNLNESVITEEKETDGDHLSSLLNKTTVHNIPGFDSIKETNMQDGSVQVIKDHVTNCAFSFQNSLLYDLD
UniProt Q96EY1: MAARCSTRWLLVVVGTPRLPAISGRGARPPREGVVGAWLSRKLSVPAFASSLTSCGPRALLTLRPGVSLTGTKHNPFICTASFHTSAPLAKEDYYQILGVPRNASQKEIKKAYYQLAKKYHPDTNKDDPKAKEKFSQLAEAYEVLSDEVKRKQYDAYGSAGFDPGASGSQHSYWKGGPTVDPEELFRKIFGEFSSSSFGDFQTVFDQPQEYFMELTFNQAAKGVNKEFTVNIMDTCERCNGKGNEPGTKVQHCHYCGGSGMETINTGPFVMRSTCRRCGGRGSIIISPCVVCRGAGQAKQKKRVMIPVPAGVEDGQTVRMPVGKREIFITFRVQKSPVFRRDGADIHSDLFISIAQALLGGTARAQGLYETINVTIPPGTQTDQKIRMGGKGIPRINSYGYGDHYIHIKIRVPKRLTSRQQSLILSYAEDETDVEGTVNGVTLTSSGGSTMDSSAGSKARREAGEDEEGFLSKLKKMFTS
UniProt P0CG22: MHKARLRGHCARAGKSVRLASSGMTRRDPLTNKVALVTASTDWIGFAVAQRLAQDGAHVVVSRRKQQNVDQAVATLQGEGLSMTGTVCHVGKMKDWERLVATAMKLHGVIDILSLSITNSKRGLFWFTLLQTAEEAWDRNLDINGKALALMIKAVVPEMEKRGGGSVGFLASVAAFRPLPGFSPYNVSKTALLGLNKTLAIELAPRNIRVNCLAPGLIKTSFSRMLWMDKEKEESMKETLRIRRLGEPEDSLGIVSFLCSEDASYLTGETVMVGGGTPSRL
UniProt Q5JSL3: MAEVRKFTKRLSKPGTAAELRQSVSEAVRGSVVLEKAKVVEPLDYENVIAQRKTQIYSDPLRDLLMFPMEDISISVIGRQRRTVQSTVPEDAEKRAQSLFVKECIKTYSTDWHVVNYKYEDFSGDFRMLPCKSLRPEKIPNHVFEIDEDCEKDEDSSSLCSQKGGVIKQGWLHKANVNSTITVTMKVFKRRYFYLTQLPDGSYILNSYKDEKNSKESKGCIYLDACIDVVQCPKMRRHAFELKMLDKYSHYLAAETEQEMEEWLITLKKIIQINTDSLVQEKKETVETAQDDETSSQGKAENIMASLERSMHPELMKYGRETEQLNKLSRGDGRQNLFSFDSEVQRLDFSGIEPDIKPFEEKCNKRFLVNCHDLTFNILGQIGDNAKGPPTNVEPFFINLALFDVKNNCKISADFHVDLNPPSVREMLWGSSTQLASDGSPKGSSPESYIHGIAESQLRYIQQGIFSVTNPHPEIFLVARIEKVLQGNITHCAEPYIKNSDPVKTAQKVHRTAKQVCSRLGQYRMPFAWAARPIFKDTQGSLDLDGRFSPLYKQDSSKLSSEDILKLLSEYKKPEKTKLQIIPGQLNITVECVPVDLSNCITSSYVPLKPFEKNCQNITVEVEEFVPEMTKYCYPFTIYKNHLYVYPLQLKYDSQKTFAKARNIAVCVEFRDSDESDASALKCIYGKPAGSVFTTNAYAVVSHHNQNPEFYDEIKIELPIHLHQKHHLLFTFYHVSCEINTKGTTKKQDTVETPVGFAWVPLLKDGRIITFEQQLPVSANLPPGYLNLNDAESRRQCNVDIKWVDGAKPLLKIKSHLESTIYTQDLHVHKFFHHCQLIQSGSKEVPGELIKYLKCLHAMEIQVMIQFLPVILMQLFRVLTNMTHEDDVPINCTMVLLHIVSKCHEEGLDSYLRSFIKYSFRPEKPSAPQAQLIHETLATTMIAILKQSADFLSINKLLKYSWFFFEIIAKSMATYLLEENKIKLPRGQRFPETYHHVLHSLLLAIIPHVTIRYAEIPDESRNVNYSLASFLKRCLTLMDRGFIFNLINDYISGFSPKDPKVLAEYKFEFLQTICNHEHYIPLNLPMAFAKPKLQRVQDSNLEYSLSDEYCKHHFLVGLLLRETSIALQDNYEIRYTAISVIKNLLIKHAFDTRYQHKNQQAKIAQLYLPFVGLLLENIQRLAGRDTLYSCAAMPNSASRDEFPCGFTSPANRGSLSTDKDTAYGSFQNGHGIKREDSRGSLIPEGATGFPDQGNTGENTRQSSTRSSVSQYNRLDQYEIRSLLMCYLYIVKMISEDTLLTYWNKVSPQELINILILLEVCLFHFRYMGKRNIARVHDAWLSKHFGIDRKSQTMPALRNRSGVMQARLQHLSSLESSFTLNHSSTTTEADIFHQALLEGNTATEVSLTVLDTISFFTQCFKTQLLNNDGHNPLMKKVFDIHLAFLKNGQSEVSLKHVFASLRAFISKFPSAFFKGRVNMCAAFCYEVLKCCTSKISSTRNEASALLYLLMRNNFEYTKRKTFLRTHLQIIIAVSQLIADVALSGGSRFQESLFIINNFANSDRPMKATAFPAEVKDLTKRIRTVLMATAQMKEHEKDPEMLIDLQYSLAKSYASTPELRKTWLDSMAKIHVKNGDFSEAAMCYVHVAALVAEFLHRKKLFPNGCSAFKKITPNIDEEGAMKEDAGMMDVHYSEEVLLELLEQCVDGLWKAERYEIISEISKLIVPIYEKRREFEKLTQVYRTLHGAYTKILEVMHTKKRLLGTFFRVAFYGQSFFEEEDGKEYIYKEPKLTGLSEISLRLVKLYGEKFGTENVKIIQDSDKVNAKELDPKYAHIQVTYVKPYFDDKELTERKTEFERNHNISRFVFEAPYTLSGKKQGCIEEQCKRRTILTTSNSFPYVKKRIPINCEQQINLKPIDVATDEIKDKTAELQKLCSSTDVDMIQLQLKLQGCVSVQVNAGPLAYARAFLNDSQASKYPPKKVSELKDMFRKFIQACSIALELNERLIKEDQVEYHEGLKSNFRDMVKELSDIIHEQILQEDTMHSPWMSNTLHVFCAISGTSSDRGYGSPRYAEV
UniProt Q9BVM2: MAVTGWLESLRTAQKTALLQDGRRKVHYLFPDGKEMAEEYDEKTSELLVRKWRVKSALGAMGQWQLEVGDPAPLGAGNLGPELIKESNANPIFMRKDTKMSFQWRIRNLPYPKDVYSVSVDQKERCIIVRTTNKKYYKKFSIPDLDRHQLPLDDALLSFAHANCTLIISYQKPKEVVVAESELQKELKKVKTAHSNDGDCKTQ
UniProt Q13574: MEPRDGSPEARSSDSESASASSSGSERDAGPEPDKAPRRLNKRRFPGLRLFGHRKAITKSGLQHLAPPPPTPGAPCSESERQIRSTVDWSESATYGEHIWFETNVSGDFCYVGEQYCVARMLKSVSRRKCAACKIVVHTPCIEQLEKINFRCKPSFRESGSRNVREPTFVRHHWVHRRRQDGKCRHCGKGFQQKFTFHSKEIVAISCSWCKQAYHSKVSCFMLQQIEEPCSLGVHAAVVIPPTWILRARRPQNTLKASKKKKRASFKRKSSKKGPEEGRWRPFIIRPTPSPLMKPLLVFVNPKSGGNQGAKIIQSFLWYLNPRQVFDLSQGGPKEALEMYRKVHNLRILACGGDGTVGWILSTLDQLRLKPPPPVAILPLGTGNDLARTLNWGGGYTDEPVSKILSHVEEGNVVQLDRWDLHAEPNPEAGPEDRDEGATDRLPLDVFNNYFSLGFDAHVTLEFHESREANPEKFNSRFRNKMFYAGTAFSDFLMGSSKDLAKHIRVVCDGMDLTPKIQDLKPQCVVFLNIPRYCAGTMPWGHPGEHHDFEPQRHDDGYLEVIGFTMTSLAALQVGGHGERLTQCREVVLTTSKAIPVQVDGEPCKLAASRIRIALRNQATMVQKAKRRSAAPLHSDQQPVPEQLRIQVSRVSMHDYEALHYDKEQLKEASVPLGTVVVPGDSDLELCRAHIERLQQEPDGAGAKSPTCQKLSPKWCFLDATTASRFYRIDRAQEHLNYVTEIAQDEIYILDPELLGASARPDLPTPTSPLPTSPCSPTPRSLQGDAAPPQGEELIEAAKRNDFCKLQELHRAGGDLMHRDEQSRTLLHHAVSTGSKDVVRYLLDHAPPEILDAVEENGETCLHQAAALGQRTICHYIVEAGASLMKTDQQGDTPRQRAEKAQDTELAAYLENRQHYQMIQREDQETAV
UniProt Q96LJ7: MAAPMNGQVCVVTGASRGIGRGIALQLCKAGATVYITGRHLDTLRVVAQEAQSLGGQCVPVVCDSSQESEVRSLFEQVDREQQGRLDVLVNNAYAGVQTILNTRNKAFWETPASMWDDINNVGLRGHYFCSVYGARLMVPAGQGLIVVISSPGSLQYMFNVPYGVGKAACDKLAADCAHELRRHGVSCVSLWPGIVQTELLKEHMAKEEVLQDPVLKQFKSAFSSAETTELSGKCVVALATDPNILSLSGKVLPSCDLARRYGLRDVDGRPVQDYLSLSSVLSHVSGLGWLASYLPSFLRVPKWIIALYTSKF
UniProt Q7Z478: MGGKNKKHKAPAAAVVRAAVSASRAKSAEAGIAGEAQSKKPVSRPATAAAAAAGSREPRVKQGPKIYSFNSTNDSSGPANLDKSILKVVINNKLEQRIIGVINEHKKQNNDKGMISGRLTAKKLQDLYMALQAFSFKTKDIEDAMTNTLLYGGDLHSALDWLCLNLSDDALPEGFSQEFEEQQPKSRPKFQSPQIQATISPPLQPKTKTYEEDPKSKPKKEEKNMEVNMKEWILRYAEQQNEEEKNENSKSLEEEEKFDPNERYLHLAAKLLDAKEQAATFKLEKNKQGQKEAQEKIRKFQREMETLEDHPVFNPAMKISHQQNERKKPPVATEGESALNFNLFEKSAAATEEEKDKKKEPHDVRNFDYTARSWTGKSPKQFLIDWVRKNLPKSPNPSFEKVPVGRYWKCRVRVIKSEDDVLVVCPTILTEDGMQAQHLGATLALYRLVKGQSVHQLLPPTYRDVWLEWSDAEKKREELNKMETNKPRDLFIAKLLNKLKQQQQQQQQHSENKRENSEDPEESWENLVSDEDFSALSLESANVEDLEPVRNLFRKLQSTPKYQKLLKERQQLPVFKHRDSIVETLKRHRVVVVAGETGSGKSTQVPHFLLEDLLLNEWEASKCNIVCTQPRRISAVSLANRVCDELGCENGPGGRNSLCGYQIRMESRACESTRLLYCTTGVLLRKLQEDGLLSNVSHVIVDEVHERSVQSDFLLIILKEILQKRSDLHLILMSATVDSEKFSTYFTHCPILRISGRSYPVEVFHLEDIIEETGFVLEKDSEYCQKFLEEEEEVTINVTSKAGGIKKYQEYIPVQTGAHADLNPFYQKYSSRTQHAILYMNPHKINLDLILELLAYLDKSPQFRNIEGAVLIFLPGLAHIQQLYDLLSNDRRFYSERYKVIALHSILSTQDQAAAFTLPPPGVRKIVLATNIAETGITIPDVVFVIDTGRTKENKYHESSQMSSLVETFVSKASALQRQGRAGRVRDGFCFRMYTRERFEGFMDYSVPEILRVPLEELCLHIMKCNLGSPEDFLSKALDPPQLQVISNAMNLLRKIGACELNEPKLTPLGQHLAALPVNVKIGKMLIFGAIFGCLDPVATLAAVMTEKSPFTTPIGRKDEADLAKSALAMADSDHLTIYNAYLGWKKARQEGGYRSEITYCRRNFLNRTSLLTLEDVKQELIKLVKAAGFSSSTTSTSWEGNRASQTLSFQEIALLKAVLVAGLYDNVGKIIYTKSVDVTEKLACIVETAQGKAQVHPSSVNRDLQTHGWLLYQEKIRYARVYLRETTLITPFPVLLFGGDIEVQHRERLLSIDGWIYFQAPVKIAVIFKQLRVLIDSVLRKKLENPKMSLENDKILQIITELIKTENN

Tests used:
Experiment in all cases: log2 fold change, soluble protein after heating vs DMSO (PISA); higher = thermal stabilisation; K562 lysate, 10 uM; active = over 0.2 and 3.5 SD of the protein, either way, in both replicates (recomputed)
[1] = compound: C1=CC=C(C=C1)[C@H](COC2=CC3=C(C=C2)NC(=O)N3)NC(=O)C4=CC=CN(C4=O)CC5=CC(=C(C=C5)F)F
How it was run: (§1)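 K562 pellets were dounce-homogenised in PBS pH 7.4 with 1 mM MgCl2, and the crude extract at 1 mg/mL protein was treated with 10 μM compound for 30 min. Aliquots were heated for 3 min across 48°C-58°C, pooled, and brought to 0.5% NP-40 at 4°C; soluble protein was the supernatant after 21,000xg for 90 min. Soluble protein was quantified by TMTpro 16plex LC-MS/MS with channel sums equalised, and reported as log2 fold change in thermal stability against DMSO controls, with values from duplicates.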

[2] = compound: CC1=C(SC2=C1C(=N[C@H](C3=NN=C(N32)C)CC(=O)N)C4=CC=C(C=C4)Cl)C
How it was run: as §1

[3] = compound: CC1=C2C(=CC=C1)N=C(N(C2=O)C3=CC=CC=C3C)CN4C=NC5=C(N=CN=C54)N
How it was run: as §1

[4] = compound: Cc1sc2c(c1C)C(c1ccc(Cl)cc1)=N[C@@H](CC(=O)OC(C)(C)C)c1nnc(C)n1-2
How it was run: as §1

[5] = compound: c1ccc([C@@H]2C[C@H]2NC2CCNCC2)cc1
How it was run: as §1

Measured: log2 fold change

DNM2 (UniProt P50570)
inactive: [1] -0.01 | [2] 0.038 | [3] 0.035 | [4] 0.05 | [5] 0.057

DNAJC6 isoform 2 (UniProt O75061)
inactive: [1] 0.092 | [2] -0.026 | [3] 0.011 | [4] -0.012 | [5] -0.071

DGAT1 (UniProt O75907)
inactive: [1] 0.008 | [2] -0.019 | [3] 0.012 | [4] -0.061 | [5] -0.001

DHRS7B (UniProt Q6IAN0)
inactive: [1] 0.111 | [2] 0.009 | [3] 0.049 | [4] -0.002 | [5] -0.036

DNASE2 (UniProt O00115)
inactive: [1] 0.005 | [2] -0.039 | [3] -0.072 | [4] 0.035 | [5] -0.001

DICER1 (UniProt Q9UPY3)
inactive: [1] 0.028 | [2] 0.006 | [3] 0.045 | [4] 0.029 | [5] -0.038

DHRS11 (UniProt Q6UWP2)
inactive: [1] -0.004 | [2] 0.012 | [3] 0.018 | [4] 0.013 | [5] 0.014

DOK1 (UniProt Q99704)
inactive: [1] 0.048 | [2] -0.024 | [3] -0.005 | [4] 0.064 | [5] -0.036

DGKA (UniProt P23743)
inactive: [1] -0.21 | [2] -0.367 | [3] 0.018 | [4] -0.023 | [5] -0.022

DNAAF2 (UniProt Q9NVR5)
inactive: [1] 0.04 | [2] -0.017 | [3] -0.014 | [4] -0.006 | [5] -0.021

DIAPH3 (UniProt Q9NSV4)
inactive: [1] -0.09 | [2] 0.017 | [3] -0.035 | [4] 0.099 | [5] 0.195

DNAAF5 (UniProt Q86Y56)
inactive: [1] -0.054 | [2] 0.038 | [3] -0.005 | [4] 0.016 | [5] 0.064

DOK3 (UniProt Q7L591)
inactive: [1] 0.025 | [2] 0.028 | [3] 0 | [4] 0.074 | [5] -0.04

DNPEP (UniProt Q9ULA0)
inactive: [1] 0.023 | [2] 0.016 | [3] -0.022 | [4] -0.038 | [5] -0.014

DKC1 (UniProt O60832)
inactive: [1] -0.037 | [2] 0.028 | [3] 0.002 | [4] -0.032 | [5] -0.039

DHPS (UniProt P49366)
inactive: [1] 0.018 | [2] 0.019 | [3] -0.002 | [4] -0.043 | [5] -0.054

DNAJA3 (UniProt Q96EY1)
inactive: [1] -0.033 | [2] -0.007 | [3] 0.006 | [4] 0.017 | [5] 0.038

DMAC2L (UniProt Q99766)
inactive: [1] -0.031 | [2] -0.048 | [3] 0.057 | [4] -0.005 | [5] -0.061

DNTTIP2 (UniProt Q5QJE6)
inactive: [1] 0.027 | [2] -0.081 | [3] 0.175 | [4] -0.024 | [5] 0.01

DHX38 (UniProt Q92620)
inactive: [1] 0.029 | [2] -0.024 | [3] -0.005 | [4] 0.007 | [5] 0.026

DHRS4L1 (UniProt P0CG22)
inactive: [1] -0.012 | [2] -0.075 | [3] -0.009 | [4] -0.337 | [5] 0.013

DOCK11 (UniProt Q5JSL3)
inactive: [1] 0.001 | [2] 0.012 | [3] 0.051 | [4] -0.013 | [5] -0.005

DOLPP1 (UniProt Q86YN1)
inactive: [1] 0.05 | [2] -0.062 | [3] -0.111 | [4] 0.043 | [5] -0.147

DHRS4 (UniProt Q9BTZ2)
inactive: [1] 0.056 | [2] 0.002 | [3] -0.003 | [4] 0.03 | [5] 0.012

DPCD (UniProt Q9BVM2)
inactive: [1] 0.023 | [2] 0.009 | [3] 0.002 | [4] 0.008 | [5] 0.047

DGKZ (UniProt Q13574)
inactive: [1] -0.031 | [2] -0.053 | [3] -0.046 | [4] 0.014 | [5] 0.069

DHX35 (UniProt Q9H5Z1)
inactive: [1] 0.005 | [2] 0.064 | [3] -0.182 | [4] 0.019 | [5] -0.061

DHRS1 (UniProt Q96LJ7)
inactive: [1] 0.15 | [2] -0.103 | [3] -0.015 | [4] 0.029 | [5] -0.107

DHX30 isoform 2 (UniProt Q7L2E3)
inactive: [1] -0.015 | [2] 0.052 | [3] 0.026 | [4] 0.026 | [5] 0.018

DOCK8 (UniProt Q8NF50)
inactive: [1] -0.011 | [2] -0.004 | [3] 0.013 | [4] 0.005 | [5] 0.05

DMTN (UniProt Q08495)
inactive: [1] 0.026 | [2] 0.009 | [3] -0.019 | [4] -0.01 | [5] -0.005

DHCR7 (UniProt Q9UBM7)
inactive: [1] -0.107 | [2] 0.028 | [3] -0.031 | [4] -0.045 | [5] 0.091

DHX9 (UniProt Q08211)
inactive: [1] 0.015 | [2] 0.007 | [3] 0.011 | [4] 0.019 | [5] 0.038

DIEXF (UniProt Q68CQ4)
inactive: [1] -0.068 | [2] 0.099 | [3] -0.015 | [4] -0.003 | [5] 0.004

DNAJC11 (UniProt Q9NVH1)
inactive: [1] -0.022 | [2] 0.038 | [3] 0.031 | [4] 0.02 | [5] 0.022

DLGAP4 (UniProt Q9Y2H0)
inactive: [1] 0.046 | [2] -0.02 | [3] -0.105 | [4] -0.003 | [5] -0.023

DNAJC7 (UniProt Q99615)
inactive: [1] 0.076 | [2] -0.057 | [3] 0.028 | [4] 0.044 | [5] -0.035

DGUOK (UniProt Q16854)
inactive: [1] 0.001 | [2] 0.032 | [3] -0.095 | [4] -0.011 | [5] -0.021

DIMT1 (UniProt Q9UNQ2)
inactive: [1] -0.01 | [2] 0.032 | [3] -0.013 | [4] -0.003 | [5] 0.005

DMXL1 (UniProt Q9Y485)
inactive: [1] 0.011 | [2] 0.01 | [3] 0 | [4] -0.005 | [5] 0.016

DHCR24 (UniProt Q15392)
inactive: [1] 0.039 | [2] -0.032 | [3] 0.052 | [4] 0.145 | [5] -0.104

DLST (UniProt P36957)
inactive: [1] 0.048 | [2] -0.034 | [3] 0.028 | [4] -0.025 | [5] -0.005

DNAJB6 (UniProt O75190)
inactive: [1] -0.037 | [2] 0.006 | [3] -0.028 | [4] -0.063 | [5] -0.026

DIABLO (UniProt Q9NR28)
inactive: [1] -0.002 | [2] -0.061 | [3] -0.002 | [4] -0.061 | [5] -0.002

Reprinted from above (two entries):
DNAAF2 (UniProt Q9NVR5)
inactive: [1] 0.04 | [2] -0.017 | [3] -0.014 | [4] -0.006 | [5] -0.021

DIAPH3 (UniProt Q9NSV4)
inactive: [1] -0.09 | [2] 0.017 | [3] -0.035 | [4] 0.099 | [5] 0.195

(cont.)

DNM1L isoform 2 (UniProt O00429)
inactive: [1] -0.075 | [2] -0.129 | [3] -0.043 | [4] -0.107 | [5] 0.059

DNAJB1 (UniProt P25685)
inactive: [1] 0 | [2] 0.003 | [3] -0.008 | [4] -0.023 | [5] 0.045

DIAPH1 (UniProt O60610)
inactive: [1] -0.005 | [2] 0.013 | [3] 0.015 | [4] 0.007 | [5] 0.023

DNAJC13 (UniProt O75165)
inactive: [1] -0.045 | [2] 0.037 | [3] 0.03 | [4] 0.027 | [5] -0.006

DHX57 (UniProt Q6P158)
inactive: [1] 0.029 | [2] -0.006 | [3] -0.012 | [4] 0.021 | [5] -0.008

DHX36 (UniProt Q9H2U1)
inactive: [1] 0.027 | [2] 0.051 | [3] -0.009 | [4] 0.014 | [5] -0.008

DLAT (UniProt P10515)
inactive: [1] -0.034 | [2] 0.002 | [3] -0.014 | [4] -0.089 | [5] -0.023

DNAL1 (UniProt Q4LDG9)
inactive: [1] 0.121 | [2] 0.044 | [3] 0.043 | [4] 0.01 | [5] 0.126

DHX29 (UniProt Q7Z478)
inactive: [1] 0.019 | [2] 0.001 | [3] 0 | [4] -0.003 | [5] 0.007
